Test results published in patent publication US20190085029A1.
No constants are given. Whether binding was seen depends on the method and setting. Some binding calls cover weakened binding; strength is not graded here.

By UniProt entry, the sequences of proteins in these tests, tags left out. Residues count along the entry.
UniProt P61809, residues 99-307: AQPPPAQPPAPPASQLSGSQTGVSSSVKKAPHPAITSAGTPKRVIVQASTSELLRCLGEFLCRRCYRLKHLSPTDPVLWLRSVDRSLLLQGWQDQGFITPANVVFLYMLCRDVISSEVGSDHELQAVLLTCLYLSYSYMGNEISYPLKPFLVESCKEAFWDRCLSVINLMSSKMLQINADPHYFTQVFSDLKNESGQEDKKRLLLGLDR

Target: p25, from mouse brain tissue (mouse) (UniProt P61809)
Assay: interaction assay of FIG. 4 (method not described)

binding: binds
Binder: ARAFGIPVRCYS [CDK5 inhibitory (CDK5i) peptide]
